# Source: the supplement of paper PMC8551327
# This is one part of the list. Cut-off read from the data, not from the text of the source: active = 1.25 or more and inactive = the rest. Most values come without repeats; read them as rough.
# Tested on: Kcc2-LUC knock-in mouse primary cortical neurons (Kcc2 promoter reporter)
# Test: Kcc2 promoter-driven luciferase activity relative to vehicle control (fold of vehicle (ratio)); higher = stronger Kcc2 promoter activation (Kcc2 expression enhancer)
# Details: 100 nM; 48 h
row,SMILES,Kcc2 promoter-driven luciferase activity
1,Cc1cccc(NC(=O)/C=C/c2ccc([N+](=O)[O-])cc2)c1 [n-(3-methylphenyl)-3-(4-nitrophenyl)prop-2-enamide],inactive: 0.22
2,CCCCCCCCCCNCCSSCc1ccc(Cl)cc1,inactive: 0.95
3,CC(C)C1(Cl)CCC2C3(C)CCCC(C)(C(=O)O)C3CC(Cl)C2(Cl)C1Cl (configuration not stated),inactive: 1
4,Cc1ccc(S(=O)(=O)N2CCSCCSCCSCCSCC2)cc1,inactive: 0.93
5,O=c1oc2cc(O)ccc2c2oc3cc(O)ccc3c12,inactive: 0.859
6,O=C1NC(C2CCC(Cl)CN2)C(=O)NC1C1CCC(Cl)CN1 (configuration not stated),inactive: 0.766
7,Cc1nc(-n2nc(-c3ccccc3)cc2-c2ccccc2)sc1C(=O)/C=C/c1ccc(Cl)c(Cl)c1,inactive: 0.79
8,CCOC(C)C(/C=N/NC(N)=S)=N\NC(N)=S (configuration not stated),inactive: 0.37
9,Cc1c(Cl)cccc1NC(=O)c1cccc([N+](=O)[O-])c1O [N-(3-Chloro-2-methylphenyl)-2-hydroxy-3-nitrobenzamide],inactive: 0.84
10,COc1ccc(C2C(C)C(=O)C(C)C(c3ccc(OC)cc3)N2N=O)cc1 (configuration not stated),inactive: 1.16
11,"COc1ccc(C2=Nc3ccccc3SC(C)C2)cc1 (configuration not stated) [4-(4-methoxyphenyl)-2-methyl-2,3-dihydro-1,5-benzothiazepine]",inactive: 0.54
12,Nc1ncnc2c(C3OC(CO)C(O)C3O)[nH]nc12 (configuration not stated) [Formycin A],inactive: 0.92
13,CN(C)C(=O)c1cccc(COc2ccc(N3C(N)=NC(N)=NC3(C)C)cc2Cl)c1,inactive: 1.16
14,CCOC(=O)c1ccc(N=Cc2ccc(N(CCC#N)CCC#N)cc2)cc1,inactive: 0.91
15,CC(=O)/C(=C\c1cccc([N+](=O)[O-])c1)C(=O)Nc1ccccc1C,active: 1.44
16,Nc1ncnc2c1nc(Cl)n2[C@@H]1O[C@@H]2COP(=O)(O)O[C@H]2[C@H]1O,inactive: 0.79

row,SMILES,Kcc2 promoter-driven luciferase activity
1,CCCN(CCC)C(=S)Sc1nc(C)nc(N2CCN(c3nc(C)nc(SC(=S)N(CCC)CCC)c3[N+](=O)[O-])CC2)c1[N+](=O)[O-],inactive: 0.97
2,O=c1cc[nH]c(=O)[nH]1 [Uracil],inactive: 1.1
3,Nc1nc(Cl)nc2c1ncn2C1CC(O)C(CO)O1 (configuration not stated) [5-(6-Amino-2-chloropurin-9-yl)-2-(hydroxymethyl)oxolan-3-ol],inactive: 0.82
4,COc1ccc2nc(C)cc(NCCCCCCCCCNc3cc(C)nc4ccc(OC)cc34)c2c1,inactive: 0.76
5,C(=N\NC1=NCCN1)/c1c2ccccc2c(/C=N/NC2=NCCN2)c2ccccc12,inactive: 0.82
6,"CCCCCCCCCc1c(Cl)nc(Cl)nc1Cl [2,4,6-Trichloro-5-nonylpyrimidine]",inactive: 1.07
7,C=C(Cl)[C@](Cl)(CBr)CC[C@@H](Br)C(C)(C)Cl (racemic) [Halomon (racemic)],inactive: 0.94
8,Cc1c(Cl)cccc1NC(=O)/C=C/c1ccccc1 [3'-Chloro-2'-methylcinnamanilide],inactive: 1.17
9,CC(=O)O[C@]1(C(C)=O)CC[C@H]2[C@@H]3C[C@H](C)C4=CC(=O)C=C[C@]4(C)[C@@]3(F)[C@@H](O)C[C@@]21C,inactive: 0.42
10,CC1=Nc2ccccc2/C1=C\c1c(C)[nH]c2ccccc12 [(3E)-2-methyl-3-[(2-methyl-1H-indol-3-yl)methylidene]indole],inactive: 0.69
11,NC(=O)c1csc([C@@H]2O[C@H](CO)[C@@H](O)[C@H]2O)n1 [2-.beta.-D-Ribofuranosyl-4-thiazolecarboxamide],inactive: 0.92
12,C=C(C#N)C(=O)OCC(CC)CC.C=C(C#N)C(=O)OCC(CC)CC.CS(C)=O.CS(C)=O.Nc1c(N=Nc2ccc(-c3ccc(N=Nc4cc(S(=O)(=O)[O-])c5ccccc5c4N)cc3)cc2)cc(S(=O)(=O)[O-])c2ccccc12.[Pt+2],inactive: 1.16
13,"O=C1Nc2c(Cl)cc(Cl)cc2C1=O [5,7-Dichloroisatin]",inactive: 1.18
14,NC(=O)NO [Hydroxyurea],inactive: 0.99
15,"COc1ccc(C(=O)/C(Br)=C\C(=O)O)cc1 [Sodium bromebrate, (Z)-]",inactive: 0.92
16,"COC1OC(COCc2ccc(Cl)cc2)C(OCc2ccc(Cl)cc2)C1O (configuration not stated) [Methyl 3,5-bis-O-(4-chlorobenzyl)pentofuranoside]",inactive: 1.1

# Seven structures out of the list, arranged by length of the SMILES, low to high:
row,SMILES,Kcc2 promoter-driven luciferase activity
14,NC(=O)NO [Hydroxyurea],inactive: 0.99
11,"COc1ccc(C2=Nc3ccccc3SC(C)C2)cc1 (configuration not stated) [4-(4-methoxyphenyl)-2-methyl-2,3-dihydro-1,5-benzothiazepine]",inactive: 0.54
12,Nc1ncnc2c(C3OC(CO)C(O)C3O)[nH]nc12 (configuration not stated) [Formycin A],inactive: 0.92
10,CC1=Nc2ccccc2/C1=C\c1c(C)[nH]c2ccccc12 [(3E)-2-methyl-3-[(2-methyl-1H-indol-3-yl)methylidene]indole],inactive: 0.69
7,C=C(Cl)[C@](Cl)(CBr)CC[C@@H](Br)C(C)(C)Cl (racemic) [Halomon (racemic)],inactive: 0.94
16,"COC1OC(COCc2ccc(Cl)cc2)C(OCc2ccc(Cl)cc2)C1O (configuration not stated) [Methyl 3,5-bis-O-(4-chlorobenzyl)pentofuranoside]",inactive: 1.1
7,Cc1nc(-n2nc(-c3ccccc3)cc2-c2ccccc2)sc1C(=O)/C=C/c1ccc(Cl)c(Cl)c1,inactive: 0.79
